Data as given in PubChem BioAssay AID1159584 (Peter MacCallum Cancer Centre, 2016)
Here is an unselected part of about 18,000 reagents. Not all columns of the deposit are shown. The record does not give: the amount of reagent, the time to read-out.

Test: 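Genes that CDH1-null MCF10A cells selectively depend on to survive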 (primary screen)
Cells: human MCF10A breast epithelial cells, parental and CDH1-null
Reagents: siRNA against human genes
Measured: 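Cell viability by CellTiter-Glo ATP luminescence, each line scaled to the mean of mock wells across plates, then CDH1-null over parental ratio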
Scale: CDH1-null / parental viability ratio: higher = CDH1-null cells survive relatively better than parental

Target gene	PubChem SID	CDH1-null / parental viability ratio
MIR1915HG	SID152155822	0.95
KANK4	SID152148890	1.07
CYP2C9	SID134313166	1.06
AHSP	SID152155624	1.03
IRF9	SID152149883	0.89
GAB4	SID135624988	1.08
SPHK2	SID56478885	1.06
SH2D3C	SID134323724	1.04
RMND5A	SID134319480	0.96
SIRT1	SID152156258	0.98
PRB4	SID134324915	0.92
RDH14	SID152146873	0.71
BAG4	SID134310418	1
CAST	SID152152111	1.22
KIF19	SID152150906	0.94
DVL1	SID134310256	1.35
LRRC26	SID152154014	1.03
MUS81	SID135623092	1.05
INPP5B	SID152149414	1.07
HARBI1	SID134322170	0.85
PTX3	SID134321676	1.15
DDB1	SID152149275	1.04
S100A9	SID152156476	1.2
EMCN	SID134319879	1.27
PTGER1	SID134311142	1.41
ZNF438	SID134323179	0.98
SLCO4A1	SID134312483	0.88
CCDC181	SID134318204	1.06
KLHL3	SID134315296	1.14
PAX2	SID152153258	0.9
REEP1	SID134318407	1.3
CLASP1	SID152156594	1.93
AVPR1B	SID135620987	0.77
CASTOR3P	SID152153971	0.9
RTCB	SID152146976	0.94
CRH	SID134315523	0.88
GTF3C2	SID135623789	1.09
OR5T3	SID152156028	1.14
TNIK	SID152153870	0.93
MAGEA2	SID134311746	0.7
PRND	SID152148502	1.28
RFWD3	SID152147600	0.73
GALNT5	SID134318373	0.78
EPN2	SID135620876	1.2
PDE7A	SID134310095	0.98
FAAP20	SID135623568	0.97
SIRPG	SID135622507	1.19
RUMY4	SID135625675	0.97
KNDC1	SID152151432	0.81
NPHP1	SID135622053	1.09
OR5D16	SID134329937	1.16
VPS39	SID135622661	1.12
SGK2	SID56478843	0.85
RPS15A	SID152149025	2.64
COPS7A	SID134324505	1.04
SCARB1	SID152153189	0.99
GRTP1	SID135622741	0.72
DICER1	SID134309921	1.25
ADAD2	SID134322557	0.97
HKDC1	SID135621238	0.95
PRPSAP2	SID56479155	0.99
LIF	SID134316041	1.11
LRRC8A	SID152151603	0.79
OR13C8	SID152156023	1.16
MB	SID135622249	1.01
NPBWR1	SID152150510	0.9
HSD17B13	SID134322375	1
AGPAT1	SID134310089	0.93

10 entries from above in another layout:
{"Target gene":"PTGER1","PubChem SID":"SID134311142","CDH1-null / parental viability ratio":1.41}
{"Target gene":"ZNF438","PubChem SID":"SID134323179","CDH1-null / parental viability ratio":0.98}
{"Target gene":"SLCO4A1","PubChem SID":"SID134312483","CDH1-null / parental viability ratio":0.88}
{"Target gene":"CCDC181","PubChem SID":"SID134318204","CDH1-null / parental viability ratio":1.06}
{"Target gene":"KLHL3","PubChem SID":"SID134315296","CDH1-null / parental viability ratio":1.14}
{"Target gene":"PAX2","PubChem SID":"SID152153258","CDH1-null / parental viability ratio":0.9}
{"Target gene":"REEP1","PubChem SID":"SID134318407","CDH1-null / parental viability ratio":1.3}
{"Target gene":"CLASP1","PubChem SID":"SID152156594","CDH1-null / parental viability ratio":1.93}
{"Target gene":"AVPR1B","PubChem SID":"SID135620987","CDH1-null / parental viability ratio":0.77}
{"Target gene":"CASTOR3P","PubChem SID":"SID152153971","CDH1-null / parental viability ratio":0.9}
